Test results: patent publication US20260256668A1, “METHODS FOR STRENGTHENING AND REPAIRING HAIR” (Living Proof, Inc., priority 2023, published 2026)
At least one compound was matched to its structure with a doubt left. Some results were stated once for a whole list of compounds, not compound by compound.

Assay: Water contact angle (surface hydrophobicity), DSA100M Drop Shape Analyzer
Description: For this test, […], which was prepared by treating European virgin brown hair with a mixture of BW2 bleaching powder and clear 30 V developer (1:1.5 ratio, 5 g mixture per 1.5 g of hair) for 20 min under a Belvedere hooded dryer with high heat setting, followed by 30 s water rinse, 30 s 10% SLES wash, and air dry at room temperature. […] In the DSA method, a single hair fiber is mounted in a sample holder and focused by the digital camera of DSA100M. Then a droplet of filtered DI water (20-60 nL) is applied to the top of the hair fiber by a digital droplet applier, A video is then recorded until the disappearance of the water droplet. The water contact angle is obtained using the first image of the water droplet recorded. The data is collected for 3 fibers per treatment and 3 points per fiber, a total of 9 data points per treatment.

Row | Compound | water contact angle relative to virgin hair (ethanol solution 2 wt %, 10 min, blow dry (FIG. 12)) | increase of the water contact angle (aqueous solution 1 wt % active (FIG. 14))
1 | CCCCCCCCCCCCCCCCCCOP(=O)(O)O [ODPhate, Stearyl phosphate] | recovered significantly and close to the virgin level | –
2 | Phosphatidylinositol [Ptdlns] | – | at least 60%
